Results on seven molecules are retold here after US20090081195A1, “Inhibitors of Ste20-like Kinase (SLK) and Methods of Modulating Cell Cycle Progression and Cell Motility” (OTTAWA HEALTH RESEARCH INSTITUTE, priority 2005, published 2009).

Sequences of proteins named here, by UniProt entry; tags and fusion partners are left off. A change or cut given only in a name is not applied to a line headed by its entry.
UniProt O54988: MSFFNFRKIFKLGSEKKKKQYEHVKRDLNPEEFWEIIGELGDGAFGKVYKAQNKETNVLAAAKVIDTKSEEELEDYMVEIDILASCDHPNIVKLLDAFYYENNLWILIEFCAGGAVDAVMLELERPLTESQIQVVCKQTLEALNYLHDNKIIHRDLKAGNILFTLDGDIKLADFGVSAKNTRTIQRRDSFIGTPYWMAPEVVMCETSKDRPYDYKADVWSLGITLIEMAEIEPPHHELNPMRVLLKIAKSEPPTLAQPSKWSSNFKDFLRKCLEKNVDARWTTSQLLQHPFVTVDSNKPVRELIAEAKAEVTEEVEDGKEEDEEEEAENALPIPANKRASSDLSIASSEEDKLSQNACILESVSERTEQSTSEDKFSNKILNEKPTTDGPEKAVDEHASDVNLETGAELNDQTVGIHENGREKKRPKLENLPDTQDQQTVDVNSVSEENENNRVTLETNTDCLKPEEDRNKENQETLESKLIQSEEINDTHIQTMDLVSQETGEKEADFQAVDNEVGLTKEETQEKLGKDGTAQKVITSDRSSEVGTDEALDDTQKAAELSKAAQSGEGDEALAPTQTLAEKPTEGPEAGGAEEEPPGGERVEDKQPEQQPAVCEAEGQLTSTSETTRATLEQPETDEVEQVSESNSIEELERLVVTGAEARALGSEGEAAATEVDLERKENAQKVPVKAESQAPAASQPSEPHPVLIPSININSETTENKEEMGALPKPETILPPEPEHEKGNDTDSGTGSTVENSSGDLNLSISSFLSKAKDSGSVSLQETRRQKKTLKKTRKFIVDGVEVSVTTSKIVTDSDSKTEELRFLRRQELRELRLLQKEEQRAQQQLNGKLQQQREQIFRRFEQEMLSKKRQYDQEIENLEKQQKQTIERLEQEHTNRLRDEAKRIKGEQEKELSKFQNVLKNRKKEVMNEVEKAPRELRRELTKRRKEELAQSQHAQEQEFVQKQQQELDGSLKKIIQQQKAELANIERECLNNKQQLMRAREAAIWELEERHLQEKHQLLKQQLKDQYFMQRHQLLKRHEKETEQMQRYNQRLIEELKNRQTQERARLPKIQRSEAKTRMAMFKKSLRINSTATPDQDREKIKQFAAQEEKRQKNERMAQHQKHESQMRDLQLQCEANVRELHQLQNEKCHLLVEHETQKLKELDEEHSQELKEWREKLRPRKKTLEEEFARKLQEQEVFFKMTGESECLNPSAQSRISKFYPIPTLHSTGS

In assay [1] the target is GST-SLK 950-1202 (GST-tagged SLK ATH domain) (murine) (UniProt O54988). The experiment in a line: GST pulldown of [35S]-labeled in vitro translated Ldb1.
Assay [2] has as its target GST-ATH N-terminus (murine) (UniProt O54988). The experiment in a line: GST pulldown of in vitro translated Ldb1 with GST-MNAP-C, GST-ATH-N, GST-ATH-C.
Assay [3] addresses Myc-SLK 373-1202 (murine) (UniProt O54988). The experiment in a line: co-immunoprecipitation from co-transfected cells.
The target of assay [4] is Myc-SLK 950-1202 (murine) (UniProt O54988). The experiment in a line: co-immunoprecipitation from co-transfected cells.
In assay [5] the target is endogenous SLK (mouse (MEFs); rat (primary cortical neurons)) (UniProt O54988). The experiment in a line: IP-Western (FIG. 11B).
Assay [6] shares this target. The experiment in a line: IP-western of endogenous proteins.
For assay [7] the target is unchanged. The experiment in a line: IP-western of endogenous proteins from MEFs, primary neurons, N1E 115 cells (both directions).
Assay [8] deals with HA-SLK (full length) (murine) (UniProt O54988). The experiment in a line: reciprocal co-immunoprecipitation.
Assay [9] addresses SLK (construct not stated) (murine) (UniProt O54988). The experiment in a line: binding assays of FIG. 11.
Assay [10] deals with T1, Ldb2 (construct not stated) (mouse) (UniProt O55203).
T1 sequence (looked up): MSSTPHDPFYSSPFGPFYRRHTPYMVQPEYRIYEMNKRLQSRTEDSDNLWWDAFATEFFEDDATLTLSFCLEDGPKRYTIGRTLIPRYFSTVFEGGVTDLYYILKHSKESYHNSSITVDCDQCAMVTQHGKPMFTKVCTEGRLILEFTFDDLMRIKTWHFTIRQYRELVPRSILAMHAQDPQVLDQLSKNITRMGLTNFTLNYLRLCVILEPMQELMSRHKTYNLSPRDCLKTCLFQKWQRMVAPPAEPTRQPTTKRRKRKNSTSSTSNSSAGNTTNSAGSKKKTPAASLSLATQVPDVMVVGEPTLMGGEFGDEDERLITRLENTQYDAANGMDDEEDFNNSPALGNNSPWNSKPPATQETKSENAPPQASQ
The experiment in a line: co-immunoprecipitation of tagged proteins.

For assay [11], the target named is GST-ATH N-terminus (murine) (UniProt O54988). The experiment in a line: GST pulldown of [35S]-labeled in vitro translated Ldb2.
The target in assay [12] is GST-SLK 1-950 (murine) (UniProt O54988). The experiment in a line: GST pulldown of [35S]-labeled in vitro translated Ldb2, SDS-PAGE and autoradiography.
The target in assay [13] is GST-SLK 950-1202 (GST-tagged SLK ATH domain) (murine) (UniProt O54988). The description is as above.
Assay [14] deals with Myc-SLK 373-1202 (murine) (UniProt O54988). The experiment in a line: co-immunoprecipitation from co-transfected HEK 293 cells (anti-HA IP, anti-Myc blot).
For assay [15], the target named is Myc-SLK 950-1202 (murine) (UniProt O54988). The assay is described as above.
Assay [16] addresses Myc-SLK 373-1202 (murine) (UniProt O54988). The experiment in a line: co-immunoprecipitation from co-transfected HEK 293 cells (anti-HA 12CA5 IP, anti-Myc 9E10 blot).
Assay [17] deals with Myc-SLK 950-1202 (murine) (UniProt O54988). The description is as above.

These are yes or no findings as the source states them, for the method shown. For some assays here: In cells and extracts the contact can be indirect. Some results given as binding are weak or reduced against the parent protein; the word gives no strength. For some assays here: Where a sequence is shown, tags or fusion partners need not be part of it.

B1: in vitro translated [35S]-labeled Ldb1 (protein, mouse, UniProt P70662-3 1-375, looked up)
chain: MLDRDVGPTPMYPPTYLEPGIGRHTPYGNQTDYRIFELNKRLQNWTEECDNLWWDAFTTEFFEDDAMLTITFCLEDGPKRYTIGRTLIPRYFRSIFEGGATELYYVLKHPKEAFHSNFVSLDCDQGSMVTQHGKPMFTQVCVEGRLYLEFMFDDMMRIKTWHFSIRQHRELIPRSILAMHAQDPQMLDQLSKNITRCGLSNSTLNYLRLCVILEPMQELMSRHKTYSLSPRDCLKTCLFQKWQRMVAPPAEPARQQPSKRRKRKMSGGSTMSSGGGNTNNSNSKKKSPASTFALSSQVPDVMVVGEPTLMGGEFGDEDERLITRLENTQFDAANGIDDEDSFNNSPALGANSPWNSKPPSSQESKSENPTSQASQ
modifications: [35S]-methionine label
Regarding B1, the binding entry in assay [1] and in assay [2] was “binds” in each case.

B2: HA-tagged Ldb1 (protein, mouse, UniProt P70662-3 1-375, looked up, not shown: small tags and cut ends)
chain: B1 chain
B2: the binding result in assay [3] and in assay [4] was “binds” throughout.

B3: endogenous Ldb1 (protein, UniProt P70662-3 1-375, looked up)
chain: B1 chain
In the case of B3, the binding entry in assay [5], in assay [6] and in assay [7] was “binds” in each case.

B4: Myc-Ldb1 (protein, mouse, UniProt P70662-3 1-375, looked up, not shown: small tags and cut ends)
chain: B1 chain
Take B4: in [8], the binding result was “binds”.

B5: Ldb1 (construct not stated) (protein, mouse, UniProt P70662-3 1-375, looked up)
chain: B1 chain
For the molecule B5, the binding result in assay [9] and in assay [10] was “binds” each time.

B6: in vitro translated [35S]-labeled Ldb2 (protein, mouse, UniProt O55203 1-373, looked up)
chain: T1 sequence (looked up)
modifications: [35S]-methionine label
Turning to B6, the binding entry in assay [11], in assay [12] and in assay [13] was “binds” throughout.

B7: HA-tagged Ldb2 (protein, mouse, UniProt O55203 1-373, looked up, not shown: small tags and cut ends)
chain: T1 sequence (looked up)
Consider B7, for which the binding result in [14], in assay [15], in [16] and in assay [17] was “binds” in each case.
